Assay results reported in PubChem BioAssay AID540275 (National Center for Advancing Translational Sciences (NCATS), 2011).
The whole screen tested about 320,000 compounds, of which about 620 (0.19%) were called active. The inconclusive results got no clear call from the source; some entries with a clear call stand among them for comparison. No stated cut-off is given here; in the data, active means activation above about 80%; inconclusive means between about 30% and that limit; inactive means weaker than that.

Protein sequences, listed by entry. Tags and fused reporters are not part of them.
UniProt Q8NER1, whole entry, looked up: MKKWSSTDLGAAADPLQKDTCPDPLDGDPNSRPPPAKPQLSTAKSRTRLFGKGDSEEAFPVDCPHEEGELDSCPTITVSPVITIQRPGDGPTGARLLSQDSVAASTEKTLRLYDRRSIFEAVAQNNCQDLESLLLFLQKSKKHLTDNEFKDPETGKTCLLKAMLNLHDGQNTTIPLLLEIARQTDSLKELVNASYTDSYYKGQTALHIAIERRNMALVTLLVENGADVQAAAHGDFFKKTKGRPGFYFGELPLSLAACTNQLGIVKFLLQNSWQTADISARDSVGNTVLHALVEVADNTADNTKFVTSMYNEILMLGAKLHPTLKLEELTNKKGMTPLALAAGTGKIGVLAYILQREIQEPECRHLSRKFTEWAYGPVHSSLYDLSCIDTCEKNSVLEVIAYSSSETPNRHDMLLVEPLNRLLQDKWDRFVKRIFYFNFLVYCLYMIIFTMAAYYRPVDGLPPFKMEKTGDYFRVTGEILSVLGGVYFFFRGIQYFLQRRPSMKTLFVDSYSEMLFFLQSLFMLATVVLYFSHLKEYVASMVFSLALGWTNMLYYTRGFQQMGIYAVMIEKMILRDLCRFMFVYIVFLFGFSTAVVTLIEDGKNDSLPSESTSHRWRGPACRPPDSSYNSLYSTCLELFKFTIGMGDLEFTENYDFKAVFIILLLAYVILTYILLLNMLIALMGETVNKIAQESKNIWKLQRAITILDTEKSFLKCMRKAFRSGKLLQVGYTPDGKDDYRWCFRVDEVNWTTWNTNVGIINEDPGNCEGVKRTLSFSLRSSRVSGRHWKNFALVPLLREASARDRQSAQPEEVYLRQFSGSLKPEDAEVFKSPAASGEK

These molecules were tested against Transient receptor potential cation channel subfamily V member 1 (Homo sapiens) (UniProt Q8NER1) (assay: HTS Assay for Compounds that Act as Agonists of the Vanilloid Receptor 1). Details: TRPV1-expressing cells, Fluo-8 calcium influx, agonist mode; at 8.33 µM, active compounds read high.
Procedure, shortened: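 TRPV1-expressing cells were cultured overnight at 35.5C and loaded with Fluo-8 calcium dye for 40 to 90 min at room temperature. After a 10 s baseline, compound was added and calcium influx was read kinetically for 3 min (ex 480/em 520 nm).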
Further: 0% is about no effect.

SMILES | activation
Cc1ccc(Nc2nnc(SCc3ccccc3)s2)cc1 | inconclusive: 48.9%
CCN(CC)c1cccc(OCC(=O)N2c3ccccc3CC2C)c1 (centres undefined) | inconclusive: 31.4%
Fc1cccc(CSc2ccc(-c3ccco3)nn2)c1 | inconclusive: 41.9%
Cc1cc(C)cc(C(=O)NC(=S)Nc2ccc(Cc3ccncc3)cc2)c1 | inactive: 5.06%
Clc1ccc2nc(-c3cccc(SC4CCCCC4)c3)c(NCc3ccccc3)n2c1 | inconclusive: 56.2%
CCn1c(C)nc2cc(-c3nnc(-c4c(-c5ccccc5)noc4C)o3)ccc21 | inactive: 7.74%
Cc1cc(NC(=O)/C=C/c2ccccc2)no1 | inactive: 17.6%
CC(C)Oc1ccc(Nc2ncnc3ccccc23)cc1 | inconclusive: 72.8%
COc1cc([N+](=O)[O-])ccc1NC(=O)Nc1ccc2c(c1)OCCO2 | inactive: -0.0341%
CC(=O)Nc1ccc(C(=O)Nc2ccc(S(=O)(=O)N3CCOCC3)cc2)cc1 | inactive: 0.724%
Cc1ccnc(NC(=O)Cc2ccc(-c3ccccc3)cc2)c1 | inconclusive: 66.9%
Cc1ccc(NC(=O)c2ccc(OCc3c(C)noc3C)cc2)cc1 | inconclusive: 63.5%
Cc1nc2ccc(NC(=O)c3ccc(S(=O)(=O)N(C)c4ccccc4)cc3)cc2s1 | inactive: -11%
O=C(COc1ccc2ccccc2c1)Nc1ccc(Cc2ccncc2)cc1 | inconclusive: 31.1%
S=C1NC2=C(CCCC2)C2(CCCCC2)N1 | inactive: -1.63%
Cc1cc(C)c(C#N)c(N2CCN(C(=O)C3COc4ccccc4O3)CC2)n1 (centres undefined) | inconclusive: 43.3%
Cc1ccc(/C=C/c2nnc(-c3cccs3)o2)cc1 | inconclusive: 46.5%
CCn1c(SCC(=O)NCc2ccco2)nc2ccccc2c1=O | inactive: -0.684%
Cc1ccc(NC(=O)CSc2ccc(-c3cccnc3)nn2)cc1Cl | inconclusive: 53.5%
CC(C)C(NS(=O)(=O)c1cccc(C(F)(F)F)c1)C(=O)N1CCc2ccccc2C1 (centres undefined) | inconclusive: 31.4%

Single values from the entries so far.
COc1cc([N+](=O)[O-])ccc1NC(=O)Nc1ccc2c(c1)OCCO2 | activation: inactive: -0.0341%
Cc1cc(C)c(C#N)c(N2CCN(C(=O)C3COc4ccccc4O3)CC2)n1 (centres undefined) | activation: inconclusive: 43.3%
Clc1ccc2nc(-c3cccc(SC4CCCCC4)c3)c(NCc3ccccc3)n2c1 | activation: inconclusive: 56.2%
S=C1NC2=C(CCCC2)C2(CCCCC2)N1 | activation: inactive: -1.63%

(listing goes on)

SMILES | activation
CCOCCCNC(=O)c1cn(C)c2ccc(S(=O)(=O)N3CCCCC3)cc2c1=O | inactive: 2.33%
Clc1ccccc1/C=N/Nc1cc(N2CCOCC2)ncn1 | inactive: 1.36%
Nc1c(C(=O)NCC2CCCO2)c2nc3ccccc3nc2n1-c1ccccc1 (centres undefined) | inconclusive: 33.7%
COc1ccc(NC(=O)c2cc3sccc3n2Cc2ccc(F)cc2)cc1OC | inactive: 0.953%
CC1CCN(c2ccc(NC(=O)c3cccnc3)cc2)CC1 | inconclusive: 48.4%
Cc1ccc(NC(=O)c2ccc3c(c2)OCO3)cc1Cl | active: 82.8%
COc1ccc(C(=O)NCc2ccccn2)cc1 | inactive: 2.44%
O=C(Nc1cccc(O)c1)c1ccccc1[N+](=O)[O-] | inactive: 1.1%
N#CCC(=O)Nc1ncc(Cc2ccccc2Cl)s1 | inactive: 0.156%
O=C(Nc1cccc(-c2cn3ccccc3n2)c1)c1cccc(Cl)c1 | inactive: -11.6%
CC(=O)N1CCCN(Cc2cn(-c3ccc(C)cc3)nc2-c2ccc(F)cc2)CC1 | inconclusive: 43.5%
COC(=O)c1ccc(OS(=O)(=O)c2ccc(NC(C)=O)cc2)cc1 | inactive: -4.63%
CC(C)CCNC(=O)c1onc(CSc2ccc(Cl)cc2)c1C(=O)NCCC(C)C | inconclusive: 56.1%
COc1ccc(CCNCC(=O)Nc2ccc(OC(F)(F)F)cc2)cc1OC | inconclusive: 34.8%
Cc1ccc(S(=O)(=O)NC2=NCN(C(C)C)CN2)cc1 | inactive: 2.25%
COc1ccc(C(=O)NC2CCCCCC2)cc1OC1CCN(C(C)=O)CC1 | inactive: 0.679%
O=C(Nc1cccc(C(F)(F)F)c1)Nc1ccc2[nH]c(=O)[nH]c2c1 | inconclusive: 49.5%
O=C(O)CS(=O)CC(=O)Nc1cccc(C(F)(F)F)c1 (centres undefined) | inactive: 1.68%
CCCCN1C(=O)N(c2nnc(C(C)(C)C)s2)C(O)C1c1ccc(C)cc1 (centres undefined) | inconclusive: 38.7%
O=C(Nc1ncc(Cc2ccccc2)s1)c1cccs1 | inconclusive: 44.8%

SMILES | activation
CCN(CC(=O)NCc1ccc(Cl)cc1)C(=O)COc1cccc(C(F)(F)F)c1 | inconclusive: 30.2%
COc1ccccc1Nc1nc(C)c(C(=O)Nc2ccccc2)s1 | inconclusive: 52.1%
Cc1oc2c(C)c3oc(=O)c(CCC(=O)NCCCn4ccnc4)c(C)c3cc2c1C | inconclusive: 32.4%
Cc1ccc(C(=O)O/N=C(\N)c2ccccc2)c(Cl)c1 | inactive: 8.22%
COc1ccc(NC(=O)CSc2nnc(-c3cccs3)n2Cc2ccco2)cc1OC | inconclusive: 58%
Cc1ccc(C(=O)NCCSc2c(C)[nH]c3ccccc23)cc1[N+](=O)[O-] | inactive: -1.72%
COc1ccc(-n2ncc(C(=O)NC3CC3)c2C2CCN(C(=O)OC(C)(C)C)CC2)cc1 | inconclusive: 51.4%
CC(=O)c1ccc(NC(=O)CCNC(=O)c2ccc(Cl)cc2)cc1 | inconclusive: 32%
COc1ccc(NC(=O)c2cc(-c3cccc(OC)c3)on2)cc1 | inactive: 10.9%
CC(=O)c1ccc(NC(=O)c2cc3ccccc3o2)cc1 | inconclusive: 42.6%
Cc1cccc(Cn2nc(C(C)(C)C)cc2C(=O)Nc2ccc(F)cc2)c1 | inconclusive: 70.2%
CCN1CCN(C(=O)Nc2cccc(C(F)(F)F)c2)CC1 | inactive: 9.33%
Cc1ccc2cc3cc(C(=O)NC4CC4)oc3nc2c1 | inactive: -2.86%
Cc1[nH]c2ccccc2c1SCC(=O)N1CCCc2ccccc21 | inconclusive: 32.7%
CSc1nc(SCC(=O)O)c2sc3nc(-c4ccccc4)c4c(c3c2n1)CCC4 | inactive: -4.72%
CC1=NN(C(N)=S)C(=O)C1N=Nc1c(C)cc(C)cc1C (centres undefined) | inactive: -4.27%
Cc1cccc(CCN=c2c([N+](=O)[O-])nn(-c3ccccc3)n2O)c1 | inactive: 1.54%
COc1ccccc1N1CCN(C(=O)c2ccc3[nH]c4c(c3c2)CC(C)CC4)CC1 (centres undefined) | inactive: 2.55%
COc1ccccc1-n1c(SCC(=O)NCc2ccc3c(c2)OCO3)nc2cc([N+](=O)[O-])ccc21 | inconclusive: 71.7%
